In paper PMC6949046:
Results are given in words; binding and its absence hold for the method and conditions named. Binding seen in cells or lysates may run through a third protein. Some binding calls cover weakened binding; strength is not graded here.

Target: T1, Sirtuin1 (Sirt1) (mouse (endogenous in mouse heart and isolated P1 mouse cardiomyocytes)) (UniProt Q923E4)
T1 sequence: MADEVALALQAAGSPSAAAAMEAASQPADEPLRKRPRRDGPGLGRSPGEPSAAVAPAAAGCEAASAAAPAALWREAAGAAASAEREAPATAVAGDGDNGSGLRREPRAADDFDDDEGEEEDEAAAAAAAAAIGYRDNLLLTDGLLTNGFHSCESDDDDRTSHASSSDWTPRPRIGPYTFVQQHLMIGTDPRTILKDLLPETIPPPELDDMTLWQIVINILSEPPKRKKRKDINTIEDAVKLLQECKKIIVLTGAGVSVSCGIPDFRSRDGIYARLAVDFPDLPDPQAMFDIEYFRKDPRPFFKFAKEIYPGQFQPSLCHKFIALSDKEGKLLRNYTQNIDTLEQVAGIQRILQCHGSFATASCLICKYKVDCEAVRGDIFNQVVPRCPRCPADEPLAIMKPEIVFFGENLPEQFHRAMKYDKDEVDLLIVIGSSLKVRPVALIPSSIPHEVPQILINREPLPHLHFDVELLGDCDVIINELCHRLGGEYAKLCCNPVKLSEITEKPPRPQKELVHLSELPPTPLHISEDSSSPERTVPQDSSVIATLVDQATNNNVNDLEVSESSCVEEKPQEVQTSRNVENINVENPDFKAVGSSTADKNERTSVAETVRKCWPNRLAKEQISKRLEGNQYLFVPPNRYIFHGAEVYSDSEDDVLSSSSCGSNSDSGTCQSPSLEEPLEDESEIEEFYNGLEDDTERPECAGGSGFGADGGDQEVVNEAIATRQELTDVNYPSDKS
Assay: co-IP; lysates of isolated P1 mouse cardiomyocytes; immunoprecipitated with Sirt1 antibody and blotted with p21 antibody, and vice versa; IgG as negative control; protein A/G-agarose beads at 4°C for 12 h

binding: binds
B1: p21 (encoded by cyclin-dependent kinase inhibitor 1A) (protein, UniProt P39689 1-159)
chain: MSNPGDVRPVPHRSKVCRCLFGPVDSEQLRRDCDALMAGCLQEARERWNFDFVTETPLEGNFVWERVRSLGLPKVYLSPGSRSRDDLGGDKRPSTSSALLQGPAPEDHVALSLSCTLVSERPEDSPGGPGTSQGRKRRQTSLTDFYHSKRRLVFCKRKP
